Literature values as cited in US20070149409A1, “Pesticide formulations with substituted biopolymers and organic polymers for improving residual activity, droplet size, adherence and rainfastness on leaves and reduction in soil leaching” (priority 2003, published 2007).
Like-named read-outs stand apart in the source and are kept apart here. Some of these results come from one statement about several compounds together. At least one compound was matched to its structure with a doubt left.

**Q.** Which “pK / pKa” value (listed as amitrole) does the source give for `Nc1nc[nH]n1` [Amitrole] here?
**A.** above 8

**Q.** Which “pK / pKa” value does the source give for `Cc1ccc(N=c2sccn2C)c(C)c1` [CGA50439] here?
**A.** above 8
